For experiment [1], the target named is T1, GST-BUB1^467-521 (UniProt O43683).
T1 sequence: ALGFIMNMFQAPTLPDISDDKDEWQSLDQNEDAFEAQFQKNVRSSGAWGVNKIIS
Description: SEC.

Experiment [2] concerns the target T1, GST-BUB1^467-521. Kind of experiment: pull-down.

Results are given in words; binding and its absence hold for the method and conditions named. Binding can be weak; no strength is given. Where a sequence is shown, tags or fusion partners need not be part of it.

In the case of “R^AAZZ (the non-phosphorylatable mutant of RZZ) (complex)”, the binding entry with GST-BUB1^467-521 [1] and with GST-BUB1^467-521 [2] was “binds” throughout.

The record behind these values is doi:10.1101/2025.06.17.660062 (bioRxiv, 2025).
